Data as given in PubChem BioAssay AID652272 (Drosophila RNAi Screening Center, 2013)

Test: 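Genome-wide knock-down search for components of Hedgehog signalling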 (primary screen)
Cell system: Drosophila clone 8 (Cl8) cells
Reagent: long dsRNA against Drosophila genes
Detection: 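Firefly light from a Hedgehog-responsive ptc promoter reporter and Renilla reference light, both read on a plate reader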
Reading the numbers: firefly Hh reporter signal: higher = more ptc reporter light; Renilla reference signal: higher = more Renilla control light
Call rule: 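Hit when the z-score averaged over two replicates is under -2 or over +3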
Calls: active = hit: reporter lowered or raised; inactive = not a hit
The deposit covers about 21,000 reagents; this is an unselected part of those that have a named target and a result. Of all reagents, 503 (2.4%) are marked active. 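Raw plate light values, not normalised; calls rest on replicate z-scores that were not deposited; hits include reporter decreases as well as increases.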 The numbers tell different reagents against one gene apart. Not stated in the record: the amount of reagent, the time to read-out.

With knock-down of PH4alphaEFB (prolyl-4-hydroxylase-alpha EFB) #1, the record shows firefly Hh reporter signal, replicate 1 = 99229; firefly Hh reporter signal, replicate 2 = 94098; Renilla reference signal, replicate 1 = 1993; Renilla reference signal, replicate 2 = 2987; inactive.
Depletion of PH4alphaEFB (prolyl-4-hydroxylase-alpha EFB) #2 came out at: firefly Hh reporter signal, replicate 1 = 69944; firefly Hh reporter signal, replicate 2 = 89460; Renilla reference signal, replicate 1 = 2624; Renilla reference signal, replicate 2 = 2374; inactive.
With knock-down of CG15247, the record shows firefly Hh reporter signal, replicate 1 = 88133; firefly Hh reporter signal, replicate 2 = 2.00e5; Renilla reference signal, replicate 1 = 2762; Renilla reference signal, replicate 2 = 7560; inactive.
After knock-down of Trs33 (TRAPP subunit 33), the screen gave firefly Hh reporter signal, replicate 1 = 47937; firefly Hh reporter signal, replicate 2 = 64288; Renilla reference signal, replicate 1 = 1277; Renilla reference signal, replicate 2 = 1523; inactive.
Depletion of CG2972 resulted in: firefly Hh reporter signal, replicate 1 = 71243; firefly Hh reporter signal, replicate 2 = 63251; Renilla reference signal, replicate 1 = 1505; Renilla reference signal, replicate 2 = 1655; inactive.

In a second layout: entries from further up.
CG15247
- firefly Hh reporter signal, replicate 1: 88133
- firefly Hh reporter signal, replicate 2: 2.00e5
- Renilla reference signal, replicate 1: 2762
- Renilla reference signal, replicate 2: 7560
- Call: inactive

Trs33 (TRAPP subunit 33)
- firefly Hh reporter signal, replicate 1: 47937
- firefly Hh reporter signal, replicate 2: 64288
- Renilla reference signal, replicate 1: 1277
- Renilla reference signal, replicate 2: 1523
- Call: inactive

Further reagents:
CG31125 showed firefly Hh reporter signal, replicate 1 = 48440; firefly Hh reporter signal, replicate 2 = 1.47e5; Renilla reference signal, replicate 1 = 12616; Renilla reference signal, replicate 2 = 4317; active.
CG15047 gave firefly Hh reporter signal, replicate 1 = 1.63e5; firefly Hh reporter signal, replicate 2 = 8.34e5; firefly Hh reporter signal, replicate 3 = 3.65e5; Renilla reference signal, replicate 1 = 3584; Renilla reference signal, replicate 2 = 7531; inactive.
For CG5946, the entry reads firefly Hh reporter signal, replicate 1 = 36795; firefly Hh reporter signal, replicate 2 = 35542; firefly Hh reporter signal, replicate 3 = 44422; Renilla reference signal, replicate 1 = 4021; Renilla reference signal, replicate 2 = 3697; inactive.
With knock-down of Desat2 (Desaturase 2), the screen gave firefly Hh reporter signal, replicate 1 = 95805; firefly Hh reporter signal, replicate 2 = 1.39e5; Renilla reference signal, replicate 1 = 2226; Renilla reference signal, replicate 2 = 6704; inactive.
Silencing of caly (calypso) resulted in: firefly Hh reporter signal, replicate 1 = 1.06e5; firefly Hh reporter signal, replicate 2 = 89483; Renilla reference signal, replicate 1 = 5056; Renilla reference signal, replicate 2 = 4184; inactive.
For Kdm5 (Lysine demethylase 5), the values are firefly Hh reporter signal, replicate 1 = 91601; firefly Hh reporter signal, replicate 2 = 51517; Renilla reference signal, replicate 1 = 2472; Renilla reference signal, replicate 2 = 1910; inactive.
Depletion of CG5510 came out at: firefly Hh reporter signal, replicate 1 = 4.46e5; firefly Hh reporter signal, replicate 2 = 98771; Renilla reference signal, replicate 1 = 24320; Renilla reference signal, replicate 2 = 2875; inactive.
Silencing of ko (knockout) came out at: firefly Hh reporter signal, replicate 1 = 75697; firefly Hh reporter signal, replicate 2 = 1.05e5; Renilla reference signal, replicate 1 = 2817; Renilla reference signal, replicate 2 = 2664; inactive.
Silencing of CG13384 resulted in: firefly Hh reporter signal, replicate 1 = 81841; firefly Hh reporter signal, replicate 2 = 35629; Renilla reference signal, replicate 1 = 3315; Renilla reference signal, replicate 2 = 1367; inactive.
